Test results taken from patent publication US6642205B2, “Methods and compositions for reducing side effects in chemotherapeutic treatments” (Pro-Pharmaceuticals, Inc., priority 2000, dated 2003).
At least one compound was matched to its structure with a doubt left.

Experiment: Side effects (deaths) after single dose intravenous injection in healthy mice, 20 days observation
Assay type: in vivo, male BDF1 mice
Conditions: single i.v., one value per dead animal
From the text: Male BDF1 mice were used as the experimental animals for measuring side effects of therapeutic preparations. Mice were acclimated in the laboratory one week prior to experimentation. The animals were housed five per cage in a 12-hour light/dark cycle. The animals received filtered water and sterile rodent food ad libitum. The animals were observed daily and clinical signs were noted. Weight of the animals was in the range of 19-21 g at the day of treatment initiation. The mice were healthy, not previously used in other experimental procedures.

SMILES | Life span after treatment (except survived animals) (dose 80 mg/kg) | Life span after treatment (except survived animals) (dose 100 mg/kg)
COc1cccc2c1C(=O)c1c(O)c3c(c(O)c1C2=O)CC(O)(C(=O)CO)CC3OC1CC(NCC(O)C(O)C(O)C(O)COC2OC(CO)C(O)C(O)C2O)C(O)C(C)O1 [Galactomycin I, N-[α-D-galactopyranosyl-(1→6)-β-O-D-sorbityl]doxorubicin] | 1, 1, 2, 2, 2, 2 days | 1, 1, 1, 2, 2, 2 days
Br.COc1cccc2c1C(=O)c1c(O)c3c(c(O)c1C2=O)CC(O)(C(=O)CO)CC3OC1CC(NCC(O)C(O)C(OC2OC(CO)C(O)C(O)C2O)C(O)CO)C(O)C(C)O1 [Galactomycin II, N-[β-D-galactopyranosyl-(1→4)-β-O-D-sorbityl]doxorubicin] | – | 1, 1, 2 days
